According to patent US20130210911A1, “METHOD AND COMPOSITION FOR TREATING A DISEASE OR CONDITION RELATED TO OREXIN RECEPTOR 1, OREXIN RECEPTOR 2, SOMATOSTATIN RECEPTOR 2 OR DOPAMINE D2L RECEPTOR” (CENTER LABORATORIES, INC., priority 2009, published 2013):

Test system: Sodium Channel, Site 2
Test: Sodium channel, site 2 binding assay
Settings: rat sodium channel site 2 binding

## COc1ccc(CCN(C)CCC[C@](C#N)(c2ccc(OC)c(OC)c2)C(C)C)cc1OC [(R)-(+)-verapamil hydrochloride]
  nH (Hill coefficient): 0.938

## COc1ccc(CCN(C)CCC[C@@](C#N)(c2ccc(OC)c(OC)c2)C(C)C)cc1OC [(S)-(−)-verapamil hydrochloride]
  nH (Hill coefficient): 1.1

Counter-ions that a name gives are not always drawn.
